Data: article PMC11263707
No constants are given. Whether binding was seen depends on the method and setting. In cells and extracts the contact can be indirect. Some results given as binding are weak or reduced against the parent protein; the word gives no strength. For some of these results: Tags and fused reporters may be left off the sequences shown. One block for each substance: values may come before it.

Sequences of proteins named here, by UniProt entry; tags and fusion partners are left off.
UniProt P06748: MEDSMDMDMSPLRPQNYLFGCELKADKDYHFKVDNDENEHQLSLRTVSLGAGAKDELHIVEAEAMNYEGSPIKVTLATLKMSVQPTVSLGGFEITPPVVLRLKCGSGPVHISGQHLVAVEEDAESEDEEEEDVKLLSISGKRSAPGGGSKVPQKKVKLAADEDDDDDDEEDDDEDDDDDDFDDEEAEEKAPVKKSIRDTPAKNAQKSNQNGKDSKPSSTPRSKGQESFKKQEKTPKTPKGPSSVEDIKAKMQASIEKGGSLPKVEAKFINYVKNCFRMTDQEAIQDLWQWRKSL

How the values were obtained:
[1] = biological target: nucleophosmin 1 (NPM1), endogenous (human (endogenous in HEK293T, A498, CAKI-1)) (UniProt P06748); experiment: co-IP; endogenous proteins; antibody to ALDH9A1 or to NPM1 or IgG, lysate of HEK293T cells (repeated in A498 and CAKI-1 cells); protein A/G magnetic beads, overnight at 4 °C, RIPA wash; western blot
[2] = biological target: T1, Flag-ALDH9A1 (human) (UniProt P49189); experiment: co-IP; Flag-ALDH9A1 and Myc-NPM1 forced expressed in A498 and CAKI-1 cells; Flag immunoprecipitation and Myc immunoprecipitation; western blot
T1 sequence: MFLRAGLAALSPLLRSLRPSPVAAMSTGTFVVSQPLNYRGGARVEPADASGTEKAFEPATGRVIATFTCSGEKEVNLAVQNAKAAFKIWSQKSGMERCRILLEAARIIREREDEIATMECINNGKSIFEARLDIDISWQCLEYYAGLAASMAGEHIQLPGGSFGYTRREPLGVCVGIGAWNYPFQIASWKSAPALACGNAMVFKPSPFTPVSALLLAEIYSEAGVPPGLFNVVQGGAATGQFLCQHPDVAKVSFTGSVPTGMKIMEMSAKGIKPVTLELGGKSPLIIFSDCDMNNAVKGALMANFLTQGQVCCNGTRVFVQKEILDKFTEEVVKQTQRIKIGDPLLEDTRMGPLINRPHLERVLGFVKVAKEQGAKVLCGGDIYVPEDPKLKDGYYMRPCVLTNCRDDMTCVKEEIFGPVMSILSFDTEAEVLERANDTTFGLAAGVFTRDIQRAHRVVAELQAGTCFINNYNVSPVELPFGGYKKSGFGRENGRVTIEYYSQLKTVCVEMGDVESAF

[3] = biological target: ALDH9A1 (endogenous) (human (endogenous in HEK293T, A498, CAKI-1)) (UniProt P49189); experiment: co-IP; endogenous proteins; antibody to ALDH9A1 or to NPM1 or IgG, lysate of HEK293T cells (repeated in A498 and CAKI-1 cells); protein A/G magnetic beads, overnight at 4 °C, RIPA wash; western blot
[4] = biological target: T1, Flag-ALDH9A1 (human); experiment: co-IP; anti-flag immunoprecipitation from A498 and CAKI-1 cells with Flag-ALDH9A1; western blot for the endogenous candidates of the LC-MS/MS

binding [1]: binds
Substance: ALDH9A1 (endogenous) (from UniProt P49189 1-494) (enzyme)

binding [2]: binds
Substance: Myc-NPM1 (from UniProt P06748 1-294)

binding [3]: binds
binding [4]: binds
Substance: nucleophosmin 1 (NPM1), endogenous (from UniProt P06748 1-294)
